From paper PMC11514876
Results are given in words; binding and its absence hold for the method and conditions named. In cells and extracts the contact can be indirect. Some binding calls cover weakened binding; strength is not graded here.

The chains behind the UniProt entries cited, without tags or fusion partners.
UniProt Q9QZL0: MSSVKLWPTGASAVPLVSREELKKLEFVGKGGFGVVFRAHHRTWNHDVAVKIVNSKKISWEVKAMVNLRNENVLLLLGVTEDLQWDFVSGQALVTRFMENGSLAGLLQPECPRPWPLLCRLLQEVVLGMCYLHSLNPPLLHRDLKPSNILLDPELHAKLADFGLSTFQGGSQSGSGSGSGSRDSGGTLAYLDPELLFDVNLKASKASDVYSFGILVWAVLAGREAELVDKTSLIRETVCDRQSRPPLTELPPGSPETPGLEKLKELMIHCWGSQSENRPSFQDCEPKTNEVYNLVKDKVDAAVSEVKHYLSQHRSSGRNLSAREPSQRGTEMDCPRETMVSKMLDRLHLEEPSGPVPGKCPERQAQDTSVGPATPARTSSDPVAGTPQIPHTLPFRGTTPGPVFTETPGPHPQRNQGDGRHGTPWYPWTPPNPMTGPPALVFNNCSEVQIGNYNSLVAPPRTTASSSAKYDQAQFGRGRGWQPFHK

Key:
[1] = target: T1, Z-DNA binding protein 1 (ZBP1), endogenous in mouse pulmonary vascular endothelial cells (mouse (endogenous in MPVECs)) (UniProt Q9QY24); assay: proximity ligation; Duolink PLA on fixed primary MPVECs with antibodies to the two proteins; cells treated with LPS and rmCIRP for 36 h (ZBP1-RIPK3), or with LPS alone or LPS and rmCIRP for 12 h (ZBP1-CIRP, ZBP1-TRIM32)
T1 sequence: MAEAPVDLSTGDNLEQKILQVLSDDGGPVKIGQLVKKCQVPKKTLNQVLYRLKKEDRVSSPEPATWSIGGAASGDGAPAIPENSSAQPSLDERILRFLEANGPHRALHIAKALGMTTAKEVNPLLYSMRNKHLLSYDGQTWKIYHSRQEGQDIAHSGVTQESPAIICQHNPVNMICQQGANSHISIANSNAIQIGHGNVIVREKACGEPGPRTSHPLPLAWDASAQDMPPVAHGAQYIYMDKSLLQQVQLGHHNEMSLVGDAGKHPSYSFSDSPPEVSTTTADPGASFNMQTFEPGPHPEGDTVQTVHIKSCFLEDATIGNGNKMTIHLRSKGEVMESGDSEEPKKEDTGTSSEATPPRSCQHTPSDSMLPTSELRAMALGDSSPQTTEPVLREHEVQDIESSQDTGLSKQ

[2] = target: T1, Z-DNA binding protein 1 (ZBP1), endogenous in mouse pulmonary vascular endothelial cells (mouse (endogenous in MPVECs)); assay: co-IP; IP with anti-ZBP1 or control IgG from lysates of WT primary MPVECs after 36 h of LPS and rmCIRP; immunoblot
[3] = target: T1, Z-DNA binding protein 1 (ZBP1), endogenous in mouse pulmonary vascular endothelial cells (mouse (endogenous in MPVECs)); assay: proximity ligation; Duolink PLA on fixed primary MPVECs with antibodies to the two proteins; cells treated with LPS and rmCIRP for 36 h (ZBP1-RIPK3), or with LPS alone or LPS and rmCIRP for 12 h (ZBP1-CIRP, ZBP1-TRIM32); remark: listed apart in the source
[4] = target: T1, Z-DNA binding protein 1 (ZBP1), endogenous in mouse pulmonary vascular endothelial cells (mouse (endogenous in MPVECs)); assay: co-IP; cells treated with LPS alone or LPS with rmCIRP for 12 h; CIRP and ZBP1 in the precipitated complexes shown by Western blotting; precipitating antibody not stated

Molecule	binding [1]	binding [2]	binding [3]	binding [4]
receptor-interacting protein kinase 3 (RIPK3), endogenous in MPVECs (from UniProt Q9QZL0 1-486)	binds	binds	–	–
recombinant mouse cold-inducible RNA-binding protein (rmCIRP) (protein, UniProt P60824 1-172) MASDEGKLFVGGLSFDTNEQALEQVFSKYGQISEVVVVKDRETQRSRGFGFVTFENIDDAKDAMMAMNGKSVDGRQIRVDQAGKSSDNRSRGYRGGSAGGRGFFRGGRSRGRGFSRGGGDRGYGGGRFESRSGGYGGSRDYYASRSQGGSYGYRSSGGSYRDSYDSYATHNE	–	–	binds	binds
